Data reported in article PMC6386416.

Protein sequences, listed by entry. Tags and fused reporters are not part of them. Lines headed by an entry give the natural chain unless they say otherwise; changes in a name come on top.
UniProt Q8LPR5: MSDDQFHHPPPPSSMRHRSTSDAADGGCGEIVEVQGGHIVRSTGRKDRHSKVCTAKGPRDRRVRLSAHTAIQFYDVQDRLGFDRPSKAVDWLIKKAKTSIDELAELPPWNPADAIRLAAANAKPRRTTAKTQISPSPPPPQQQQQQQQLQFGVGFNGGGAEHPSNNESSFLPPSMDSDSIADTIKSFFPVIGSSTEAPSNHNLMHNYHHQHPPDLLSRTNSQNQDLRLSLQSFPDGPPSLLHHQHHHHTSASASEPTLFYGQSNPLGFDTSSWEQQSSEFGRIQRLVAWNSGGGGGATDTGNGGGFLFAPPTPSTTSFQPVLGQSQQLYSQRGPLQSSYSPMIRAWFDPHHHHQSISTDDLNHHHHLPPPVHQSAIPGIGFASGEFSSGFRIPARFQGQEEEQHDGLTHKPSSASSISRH

Biological target: MBP-TCP4D (MBP-fused TCP4 domain) (Arabidopsis thaliana) (UniProt Q8LPR5)
Test: EMSA
Conditions: 250-fold unlabeled competitor, anti-MBP supershift; recombinant protein; protein details: MBP

Sequence	binding result
CGTGTGGGTGGCCCATCATCAT (double strand) [HAT2-BS3]	binds
CGTTGGTTGGTCCACAACTTTG (double strand) [HAT2-BS1]	binds
TTCTCAGAGTGGTCCGGACATT (double strand) [HAT2-BS2]	binds

Construct, isoform or probe ends are uncertain for at least one entry. At least one verdict rests on a figure or table, not on a statement of the authors.
